From article PMC6449397
These are yes or no findings as the source states them, for the method shown. In cells and extracts the contact can be indirect. These calls come from enrichment with a bait or labelling near it, and not all partners need be listed. For some of these results: A no says only that the protein was not detected with the bait. Sequences can lack the tags named with a protein.

Legend:
SMC1A-GFP (human) [1] = molecular target: T1, SMC1A-GFP (human) (UniProt Q14683); assay: affinity purification with mass spectrometry; microcentrifuge tube-based GFP pull-down on GFP-Trap_A beads, 500 µg whole-cell extract, incubation 90 min at 4 °C in 300 mM NaCl buffer with ethidium bromide, washes with 1 M NaCl buffer; control wild-type HeLa Kyoto; label-free quantification
T1 sequence: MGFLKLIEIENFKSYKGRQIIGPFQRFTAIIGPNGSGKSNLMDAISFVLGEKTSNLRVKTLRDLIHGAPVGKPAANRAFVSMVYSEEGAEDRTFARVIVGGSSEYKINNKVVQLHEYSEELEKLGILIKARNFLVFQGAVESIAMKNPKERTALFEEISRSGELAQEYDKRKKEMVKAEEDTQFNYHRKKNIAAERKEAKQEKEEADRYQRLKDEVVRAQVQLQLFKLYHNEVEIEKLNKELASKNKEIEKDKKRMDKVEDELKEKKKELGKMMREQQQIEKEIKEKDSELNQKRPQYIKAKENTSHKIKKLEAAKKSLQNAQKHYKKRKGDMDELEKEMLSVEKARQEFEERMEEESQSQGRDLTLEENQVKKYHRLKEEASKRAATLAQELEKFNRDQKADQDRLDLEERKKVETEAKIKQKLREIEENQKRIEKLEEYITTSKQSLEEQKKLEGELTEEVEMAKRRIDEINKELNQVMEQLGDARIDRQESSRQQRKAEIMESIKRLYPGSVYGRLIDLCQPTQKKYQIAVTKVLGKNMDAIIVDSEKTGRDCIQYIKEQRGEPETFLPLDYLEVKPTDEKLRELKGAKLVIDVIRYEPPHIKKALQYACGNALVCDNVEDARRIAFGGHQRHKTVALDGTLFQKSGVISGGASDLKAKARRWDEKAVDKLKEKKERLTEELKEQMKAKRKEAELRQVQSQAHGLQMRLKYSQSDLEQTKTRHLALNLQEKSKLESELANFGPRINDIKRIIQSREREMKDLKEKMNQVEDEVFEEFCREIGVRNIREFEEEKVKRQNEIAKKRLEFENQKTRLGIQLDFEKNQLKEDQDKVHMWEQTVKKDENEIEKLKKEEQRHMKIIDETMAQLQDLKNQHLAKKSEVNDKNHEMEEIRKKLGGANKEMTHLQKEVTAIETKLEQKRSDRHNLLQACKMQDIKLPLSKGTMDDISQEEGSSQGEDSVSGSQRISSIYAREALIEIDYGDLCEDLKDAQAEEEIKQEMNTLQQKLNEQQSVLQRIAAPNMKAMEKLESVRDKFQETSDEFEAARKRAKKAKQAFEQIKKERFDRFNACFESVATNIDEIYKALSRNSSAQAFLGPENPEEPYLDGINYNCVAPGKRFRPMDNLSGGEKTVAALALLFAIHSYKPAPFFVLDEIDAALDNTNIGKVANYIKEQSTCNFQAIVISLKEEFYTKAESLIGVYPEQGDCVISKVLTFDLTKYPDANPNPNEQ

SMC1A-GFP (human) [2] = molecular target: T1, SMC1A-GFP (human); assay: affinity purification with mass spectrometry; on-chip AP-MS: microfluidic columns of Dynabeads M-270 epoxy coupled to anti-GFP nanobody Lag16-2K/R (24-reactor chip; SMC1A and CCDC93 also on the 48-reactor chip), 4 µg whole-cell extract or 12,000-25,000 cells per pull-down, loaded at 15 °C, washes with 1 M NaCl buffer and PBS, on-bead digestion; control wild-type or not induced cells; label-free quantification

B1: PDS5A (protein, UniProt Q29RF7 1-1337)
chain: MDFTAQPKPATALCGVVSADGKIAYPPGVKEITDKITTDEMIKRLKMVVKTFMDMDQDSEDEKQQYLPLALHLASEFFLRNPNKDVRLLVACCLADIFRIYAPEAPYTSHDKLKDIFLFITRQLKGLEDTKSPQFNRYFYLLENLAWVKSYNICFELEDCNEIFIQLFRTLFSVINNSHNKKVQMHMLDLMSSIIMEGDGVTQELLDSILINLIPAHKNLNKQSFDLAKVLLKRTVQTIEACIANFFNQVLVLGRSSVSDLSEHVFDLIQELFAIDPHLLLSVMPQLEFKLKSNDGEERLAVVRLLAKLFGSKDSDLATQNRPLWQCFLGRFNDIHVPVRLESVKFASHCLMNHPDLAKDLTEYLKVRSHDPEEAIRHDVIVTIITAAKRDLALVNDQLLGFVRERTLDKRWRVRKEAMMGLAQLYKKYCLHGEAGKEAAEKVSWIKDKLLHIYYQNSIDDKLLVEKIFAQYLVPHNLETEERMKCLYYLYASLDPNAVKALNEMWKCQNMLRSHVRELLDLHKQPTSEANCSAMFGKLMTIAKNLPDPGKAQDFVKKFNQVLGDDEKLRSQLELLISPTCSCKQADICVREIARKLANPKQPTNPFLEMVKFLLERIAPVHIDSEAISALVKLMNKSIEGTADDEEEGVSPDTAIRSGLELLKVLSFTHPTSFHSAETYESLLQCLRMEDDKVAEAAIQIFRNTGHKIETDLPQIRSTLIPILHQKAKRGTPHQAKQAVHCIHAIFTNKEVQLAQIFEPLSRSLNADVPEQLITPLVSLGHISMLAPDQFASPMKSVVANFIVKDLLMNDRSTGEKNGKLWSPDEEVSPEVLAKVQAIKLLVRWLLGMKNNQSKSANSTLRLLSAMLVSEGDLTEQKRISKSDMSRLRLAAGSAIMKLAQEPCYHEIITPEQFQLCALVINDECYQVRQIFAQKLHKALVKLLLPLEYMAIFALCAKDPVKERRAHARQCLLKNISIRREYIKQNPMATEKLLSLLPEYVVPYMIHLLAHDPDFTRSQDVDQLRDIKECLWFMLEVLMTKNENNSHAFMKKMAENIKLTRDAQSPDESKTNEKLYTVCDVALCVINSKSALCNADSPKDPVLPMKFFTQPEKDFCNDKSYISEETRVLLLTGKPKPAGVLGAVNKPLSATGRKPYVRSTGTETGSNINVNSELNPSTGNRSREQSSEAAETGVSENEENPVRIISVTPVKNIDPVKNKEINSDQATQGNISSDRGKKRTVTAAGAENIQQKTDEKVDESGPPAPSKPRRGRRPKSESQGNATKNDDLNKPINKGRKRAAVGQESPGGLEAGNAKAPKLQDLAKKAAPAERQIDLQR
Q: With B1 as the binder, how does the binding (SMC1A-GFP (human) [1]) read?
A: The binding was “binds”.

B2: PDS5B (protein, UniProt Q9NTI5 1-1447)
chain: MAHSKTRTNDGKITYPPGVKEISDKISKEEMVRRLKMVVKTFMDMDQDSEEEKELYLNLALHLASDFFLKHPDKDVRLLVACCLADIFRIYAPEAPYTSPDKLKDIFMFITRQLKGLEDTKSPQFNRYFYLLENIAWVKSYNICFELEDSNEIFTQLYRTLFSVINNGHNQKVHMHMVDLMSSIICEGDTVSQELLDTVLVNLVPAHKNLNKQAYDLAKALLKRTAQAIEPYITNFFNQVLMLGKTSISDLSEHVFDLILELYNIDSHLLLSVLPQLEFKLKSNDNEERLQVVKLLAKMFGAKDSELASQNKPLWQCYLGRFNDIHVPIRLECVKFASHCLMNHPDLAKDLTEYLKVRSHDPEEAIRHDVIVSIVTAAKKDILLVNDHLLNFVRERTLDKRWRVRKEAMMGLAQIYKKYALQSAAGKDAAKQIAWIKDKLLHIYYQNSIDDRLLVERIFAQYMVPHNLETTERMKCLYYLYATLDLNAVKALNEMWKCQNLLRHQVKDLLDLIKQPKTDASVKAIFSKVMVITRNLPDPGKAQDFMKKFTQVLEDDEKIRKQLEVLVSPTCSCKQAEGCVREITKKLGNPKQPTNPFLEMIKFLLERIAPVHIDTESISALIKQVNKSIDGTADDEDEGVPTDQAIRAGLELLKVLSFTHPISFHSAETFESLLACLKMDDEKVAEAALQIFKNTGSKIEEDFPHIRSALLPVLHHKSKKGPPRQAKYAIHCIHAIFSSKETQFAQIFEPLHKSLDPSNLEHLITPLVTIGHIALLAPDQFAAPLKSLVATFIVKDLLMNDRLPGKKTTKLWVPDEEVSPETMVKIQAIKMMVRWLLGMKNNHSKSGTSTLRLLTTILHSDGDLTEQGKISKPDMSRLRLAAGSAIVKLAQEPCYHEIITLEQYQLCALAINDECYQVRQVFAQKLHKGLSRLRLPLEYMAICALCAKDPVKERRAHARQCLVKNINVRREYLKQHAAVSEKLLSLLPEYVVPYTIHLLAHDPDYVKVQDIEQLKDVKECLWFVLEILMAKNENNSHAFIRKMVENIKQTKDAQGPDDAKMNEKLYTVCDVAMNIIMSKSTTYSLESPKDPVLPARFFTQPDKNFSNTKNYLPPEMKSFFTPGKPKTTNVLGAVNKPLSSAGKQSQTKSSRMETVSNASSSSNPSSPGRIKGRLDSSEMDHSENEDYTMSSPLPGKKSDKRDDSDLVRSELEKPRGRKKTPVTEQEEKLGMDDLTKLVQEQKPKGSQRSRKRGHTASESDEQQWPEEKRLKEDILENEDEQNSPPKKGKRGRPPKPLGGGTPKEEPTMKTSKKGSKKKSGPPAPEEEEEEERQSGNTEQKSKSKQHRVSRRAQQRAESPESSAIESTQSTPQKGRGRPSKTPSPSQPKKNVRVGRSKQAATKENDSSEEVDVFQGSSPVDDIPQEETEEEEVSTVNVRRRSAKRERR
Q: Which binding (SMC1A-GFP (human) [1]) does the source give for B2 here?
A: The binding was “binds”.

B3: WAPL (protein, UniProt Q7Z5K2 1-1190)
chain: MTSRFGKTYSRKGGNGSSKFDEVFSNKRTTLSTKWGETTFMAKLGQKRPNFKPDIQEIPKKPKVEEESTGDPFGFDSDDESLPVSSKNLAQVKCSSYSESSEAAQLEEVTSVLEANSKISHVVVEDTVVSDKCFPLEDTLLGKEKSTNRIVEDDASISSCNKLITSDKVENFHEEHEKNSHHIHKNADDSTKKPNAETTVASEIKETNDTWNSQFGKRPESPSEISPIKGSVRTGLFEWDNDFEDIRSEDCILSLDSDPLLEMKDDDFKNRLENLNEAIEEDIVQSVLRPTNCRTYCRANKTKSSQGASNFDKLMDGTSQALAKANSESSKDGLNQAKKGGVSCGTSFRGTVGRTRDYTVLHPSCLSVCNVTIQDTMERSMDEFTASTPADLGEAGRLRKKADIATSKTTTRFRPSNTKSKKDVKLEFFGFEDHETGGDEGGSGSSNYKIKYFGFDDLSESEDDEDDDCQVERKTSKKRTKTAPSPSLQPPPESNDNSQDSQSGTNNAENLDFTEDLPGVPESVKKPINKQGDKSKENTRKIFSGPKRSPTKAVYNARHWNHPDSEELPGPPVVKPQSVTVRLSSKEPNQKDDGVFKAPAPPSKVIKTVTIPTQPYQDIVTALKCRREDKELYTVVQHVKHFNDVVEFGENQEFTDDIEYLLSGLKSTQPLNTRCLSVISLATKCAMPSFRMHLRAHGMVAMVFKTLDDSQHHQNLSLCTAALMYILSRDRLNMDLDRASLDLMIRLLELEQDASSAKLLNEKDMNKIKEKIRRLCETVHNKHLDLENITTGHLAMETLLSLTSKRAGDWFKEELRLLGGLDHIVDKVKECVDHLSRDEDEEKLVASLWGAERCLRVLESVTVHNPENQSYLIAYKDSQLIVSSAKALQHCEELIQQYNRAEDSICLADSKPLPHQNVTNHVGKAVEDCMRAIIGVLLNLTNDNEWGSTKTGEQDGLIGTALNCVLQVPKYLPQEQRFDIRVLGLGLLINLVEYSARNRHCLVNMETSCSFDSSICSGEGDDSLRIGGQVHAVQALVQLFLERERAAQLAESKTDELIKDAPTTQHDKSGEWQETSGEIQWVSTEKTDGTEEKHKKEEEDEELDLNKALQHAGKHMEDCIVASYTALLLGCLCQESPINVTTVREYLPEGDFSIMTEMLKKFLSFMNLTCAVGTTGQKSISRVIEYLEHC
Q: With B3 as the binder, how does the binding (SMC1A-GFP (human) [1]) read?
A: The binding was “binds”.

B4: HSD17B10 (protein, UniProt Q99714 1-261)
chain: MAAACRSVKGLVAVITGGASGLGLATAERLVGQGASAVLLDLPNSGGEAQAKKLGNNCVFAPADVTSEKDVQTALALAKGKFGRVDVAVNCAGIAVASKTYNLKKGQTHTLEDFQRVLDVNLMGTFNVIRLVAGEMGQNEPDQGGQRGVIINTASVAAFEGQVGQAAYSASKGGIVGMTLPIARDLAPIGIRVMTIAPGLFGTPLLTSLPEKVCNFLASQVPFPSRLGDPAEYAHLVQAIIENPFLNGEVIRLDGAIRMQP
Q: With B4 as the binder, how does the binding (SMC1A-GFP (human) [2]) read?
A: The binding was “no binding”.
